Data taken from PubChem BioAssay AID743255 (National Center for Advancing Translational Sciences (NCATS), 2014).
Among all 390,000 compounds or so, about 910 (0.23%) were called active. Inconclusive means that the source gave no clear call. Such entries were picked first, then a sample of the others. Calls follow the shape of the dose curve; as a rule, active = well fitted inhibition curve with a large enough effect; inconclusive = small, poorly fitted or top-dose-only effect; inactive = no such curve, though single readings can be large or run the other way. Potencies beside an inconclusive call are fits to weak or partial responses and may not hold up. Residues, ends and D or L forms follow the SMILES beside them. *: point of attachment. Boc = CC(C)(C)OC(=O)*
Also: nearly all actives have a fitted effect of over 60% in size.
Potency is read from the fitted curve at half-maximal effect.

The chains behind the UniProt entries cited, without tags or fusion partners. Where a name states a change or a piece, a line headed by the entry shows the natural chain unless it says otherwise.
UniProt O94782: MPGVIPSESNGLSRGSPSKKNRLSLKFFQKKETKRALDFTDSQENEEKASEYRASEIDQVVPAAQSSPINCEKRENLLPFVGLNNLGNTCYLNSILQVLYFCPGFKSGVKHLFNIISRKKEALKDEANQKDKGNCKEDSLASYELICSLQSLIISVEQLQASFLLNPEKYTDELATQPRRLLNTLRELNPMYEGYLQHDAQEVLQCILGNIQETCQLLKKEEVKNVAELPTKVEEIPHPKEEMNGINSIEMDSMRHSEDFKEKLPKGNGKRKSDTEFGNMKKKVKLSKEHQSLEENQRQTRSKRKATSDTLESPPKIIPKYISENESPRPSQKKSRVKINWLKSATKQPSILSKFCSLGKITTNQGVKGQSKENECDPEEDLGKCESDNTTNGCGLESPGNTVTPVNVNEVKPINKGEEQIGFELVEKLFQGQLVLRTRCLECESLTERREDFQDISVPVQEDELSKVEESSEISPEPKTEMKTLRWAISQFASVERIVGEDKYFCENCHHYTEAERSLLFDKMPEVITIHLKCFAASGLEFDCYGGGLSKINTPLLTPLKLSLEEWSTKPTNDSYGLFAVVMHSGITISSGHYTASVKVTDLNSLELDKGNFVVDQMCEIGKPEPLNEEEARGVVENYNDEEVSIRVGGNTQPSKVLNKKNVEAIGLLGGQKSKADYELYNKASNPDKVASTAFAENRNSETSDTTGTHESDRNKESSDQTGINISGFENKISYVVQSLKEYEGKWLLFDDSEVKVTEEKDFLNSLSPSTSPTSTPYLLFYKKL

What follows are compounds tested against Ubiquitin carboxyl-terminal hydrolase 1 (Homo sapiens) (UniProt O94782) (assay: Inhibitors of USP1/UAF1: Primary Screen). Settings: recombinant USP1/UAF1, Ub-Rhodamine cleavage fluorescence; series mostly up to 57.1 µM.
How it was run: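 USP1/UAF1 complex (1 nM) preincubated 15 min at room temperature with compound, then Ub-Rho substrate (150 nM final) added. Kinetic fluorescence at 480/540 nm over 6 reads at 60 s intervals; 50 mM HEPES pH 7.8, 0.5 mM EDTA, 0.1 mg/ml BSA, 1 mM TCEP, 0.01% Tween-20.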
For `COC(=O)[C@@]12CCCCN1[C@H](c1ccc(-c3cccc(Cl)c3)cc1)[C@@H]1C(=O)N(C)C(=O)[C@@H]12`, the Potency was inconclusive: 3.16 µM [inhibitor, partial curve]. In the case of `COc1ccc(N2CCN(C(=O)CSc3nnc(C)c(=O)[nH]3)CC2)cc1`, the Potency was inconclusive: 22.4 µM [inhibitor, single point]. In the case of `Cc1cc(C(=O)N2CCN(c3cccc(Cl)c3)CC2)c2c(C)nn(-c3ccccc3Cl)c2n1`, the Potency was inconclusive: 3.16 µM [inhibitor, full curve]. With `Cc1noc(C)c1S(=O)(=O)N(CC(=O)N1CCn2c1nc1ccccc12)c1ccc(C(C)C)cc1` the Potency was inconclusive: 0.355 µM [inhibitor, full curve, poor fit]. For `Cc1[nH]n(-c2cccc3ccccc23)c(=O)c1/C=N/NC(=O)c1cccc([N+](=O)[O-])c1`, the Potency was “inactive”. `CCOC(=O)CSc1nc2ccc(NC(=O)COc3ccc(F)cc3)cc2s1` was tested, and the Potency was “inactive”. For `CN(C)S(=O)(=O)c1ccc(C(=O)Nc2ccc(Cl)cc2)cc1`, the Potency was inconclusive: 39.8 µM [inhibitor, partial curve]. In the case of `CCN(CC)c1ccc(/C=C(\C#N)C(=O)c2ccc(Br)cc2)cc1`, the Potency was active: 25.1 µM. In the case of `COc1cc(Cl)c(C)cc1NC(=O)c1cc2c(=O)oc3ccccc3c2s1`, the Potency was inconclusive: 8.91 µM [inhibitor, full curve, poor fit]. With `O=C(NCc1ccccc1)C(=O)NCC(c1cccs1)S(=O)(=O)c1cccs1` (stereo not given) the Potency was inconclusive: 39.8 µM [inhibitor, partial curve]. With `O=C(CCc1cccc(Cl)c1)N1CCCC(Nc2ccccc2)C1` (stereo not given) the Potency was “inactive”. For `CSc1ccccc1NC(=O)Nc1ccc(F)c(Cl)c1`, the Potency was “inactive”. In the case of `COc1ccc(S(=O)(=O)c2c(Nc3ccc(C)cc3C)sc(C(=O)c3ccc(F)cc3)c2N)cc1`, the Potency was “inactive”. With `CC1CCC2(CC1)NC(=S)N(C(C)(C)C)N2` (stereo not given) the Potency was inconclusive: 7.94 µM [inhibitor, single point]. In the case of `O=C1CC(N2CCN(Cc3ccc4c(c3)OCO4)CC2)C(=O)N1c1cccc(Cl)c1` (stereo not given), the Potency was inconclusive: 0.631 µM [inhibitor, full curve, poor fit]. `COC(=O)C1=C(C(=O)OC)[C@@H]2N(C)c3ccccc3[C@@]23C[C@@H](C(=O)OC)N(C(=O)c2ccc(Br)cc2)C3=N1` was tested, and the Potency was inconclusive: 63.1 µM [inhibitor, partial curve, poor fit]. For `CC(=O)Nc1c(C)nn(-c2ccccc2)c1N1CCC(C(=O)Nc2cc(F)ccc2F)CC1`, the Potency was “inactive”. `COc1ccc(NC(=O)c2ncn(-c3ccccc3)n2)cc1Cl` was tested, and the Potency was inconclusive: 14.1 µM [inhibitor, partial curve, poor fit]. With `CC(=O)c1ccc(N(CC(=O)NC2CCCC2)C(=O)c2csnn2)cc1` the Potency was inconclusive: 22.4 µM [inhibitor, single point]. For `Cc1c(C(=O)OCC2CCCCC2)[nH]c2c1C(=O)CC(c1ccccc1Cl)C2` (stereo not given), the Potency was inconclusive: 1 µM [inhibitor, partial curve]. With `COc1ccc(CCNC(=O)CCc2c(C)nc3c4cccnc4nn3c2C)cc1OC` the Potency was “inactive”. For `O=C(O)c1ccccc1N/N=C\c1ccnc2ccccc12`, the Potency was “inactive”. For `COc1ccc(C2=NCCn3nc4ccccc4c32)cc1`, the Potency was “inactive”. For `Cc1ccc(NC(=O)N2CCC3(CC2)Oc2ccccc2C(=O)N3Cc2ccc(F)cc2)cc1`, the Potency was inconclusive: 50.1 µM [inhibitor, partial curve, poor fit]. With `Cc1c2cnn(CC(=O)NC(C)C)c(=O)c2c(C)n1Cc1cccc(Cl)c1` the Potency was “inactive”. In the case of `COc1ccc(C=C2SC(=S)NC2=O)cc1`, the Potency was “inactive”. For `CCc1ccc(OC(=O)CSc2nnc(-c3ccc(OC)c(OC)c3)o2)cc1`, the Potency was inconclusive: 0.0794 µM [inhibitor, full curve, poor fit]. For `Cc1c2cc(O)c(=O)cc-2oc2cc(O)c(O)cc12`, the Potency was inconclusive: 7.08 µM [inhibitor, partial curve, poor fit]. In the case of `CN(c1nnc(NC(=O)Nc2ccccc2C(F)(F)F)s1)C1CCCCC1`, the Potency was inconclusive: 44.7 µM [inhibitor, single point]. With `CC1CCN(c2ccc(NC(=O)Cc3ccccc3)cc2)CC1` the Potency was “inactive”. With `CSCCC(NC(=O)OC(C)(C)C)C(=O)NC(C(=O)NC(CC(C)C)C(N)=O)C(C)C` (stereo not drawn) (Boc-Met-Val-Leu-NH2; configuration not given here) the Potency was inconclusive: 0.631 µM [inhibitor, full curve, poor fit]. For `COc1ccc(N2CCN(C(=O)CNS(=O)(=O)c3ccc(C)cc3)CC2)cc1`, the Potency was inconclusive: 0.224 µM [inhibitor, full curve, poor fit]. In the case of `CCOC(=O)c1nnn(C(CC)C(=O)Nc2ccc(F)cc2)c1C(=O)OCC` (stereo not given), the Potency was “inactive”. `COc1ccc(S(=O)(=O)N2CCN(CC(=O)c3ccc(O)c(O)c3)CC2)cc1` was tested, and the Potency was “inactive”. For `Cc1ccc(Nc2c3c(nc4nncn24)CCC3)c(C)c1`, the Potency was “inactive”. `Cc1nnc(SCC(=O)NC2(C#N)CCCCC2)n1N` was tested, and the Potency was inconclusive: 0.251 µM [inhibitor, full curve, poor fit]. With `Cc1cc(=O)oc2c(C(=O)/C=C/c3ccccc3)c(O)ccc12` the Potency was “inactive”. With `Cc1ccc(CNC(=O)c2ccc(Cn3c(SCc4ccc(F)cc4)nc4cccnc43)cc2)o1` the Potency was inconclusive: 1.12 µM [inhibitor, full curve]. For `CCc1cccc(NC(=O)CSc2nnc(-c3cc4occc4n3C)n2-c2ccccc2C)c1`, the Potency was inconclusive: 0.282 µM [inhibitor, full curve, poor fit]. With `Cc1onc(-c2ccccc2)c1C(=O)OCCOc1ccccc1F` the Potency was “inactive”. `CCn1cnc2c1c(=O)n(Cc1cccc([N+](=O)[O-])c1)c(=O)n2Cc1ccccc1` was tested, and the Potency was inconclusive: 22.4 µM [inhibitor, partial curve, poor fit]. In the case of `CN1CCc2c(sc(NC(=O)c3ccc(S(=O)(=O)N4CCCCCC4)cc3)c2C(N)=O)C1`, the Potency was inconclusive: 35.5 µM [inhibitor, single point]. For `CCOc1ccc(NC(=O)c2cn(C3CCCCC3)c(=O)c3c2c2ccccc2n3C)cc1`, the Potency was inconclusive: 0.708 µM [inhibitor, full curve, poor fit]. In the case of `Oc1c(Br)cc(Br)c(/C=N/n2c(-c3ccccc3)n[nH]c2=S)c1Br`, the Potency was inconclusive: 35.5 µM [inhibitor, partial curve]. In the case of `COc1ccc(C(=O)n2nc(-c3cccnc3)nc2NCc2ccccc2)cc1OC`, the Potency was “inactive”. With `COc1ccc(CCNC(=O)C(=O)NCC(c2cccs2)S(=O)(=O)c2cccs2)cc1` (stereo not given) the Potency was inconclusive: 0.1 µM [inhibitor, full curve, poor fit]. In the case of `CC1CCN(C(=O)CSc2nc3c(cnn3-c3ccccc3)c(=O)[nH]2)CC1`, the Potency was inconclusive: 25.1 µM [inhibitor, partial curve]. With `Cc1ccc(CN2CCN(Cc3cccc(-n4cccn4)c3)CC2CCO)cc1` (stereo not given) the Potency was “inactive”. In the case of `O=C1c2cccc3c([N+](=O)[O-])ccc(c23)C(=O)N1O`, the Potency was inconclusive: 44.7 µM [inhibitor, partial curve, poor fit]. In the case of `N/C(=N\OC(=O)c1ccccc1Cl)c1ccc(Cl)cc1`, the Potency was “inactive”. In the case of `CC(=O)c1ccc(OCc2cc(C(=O)N(C)CC3COc4ccccc4O3)no2)cc1` (stereo not given), the Potency was “inactive”. With `CCCSc1oc(-c2cccs2)nc1S(=O)(=O)c1ccc(C)cc1` the Potency was inconclusive: 35.5 µM [inhibitor, partial curve]. In the case of `Cc1ccc(C)c(S(=O)(=O)N2CCN(C(=O)/C=C/c3ccco3)CC2)c1`, the Potency was inconclusive: 35.5 µM [inhibitor, partial curve]. For `O=C(NCCc1ccccc1)c1ccc(-c2ccccc2C(F)(F)F)o1`, the Potency was inconclusive: 39.8 µM [inhibitor, partial curve, poor fit]. In the case of `CCOC(=O)c1c(CC(C)C)csc1NC(=O)COC(=O)c1cnc(C)cn1`, the Potency was inconclusive: 12.6 µM [inhibitor, partial curve, poor fit]. With `Cc1nc2ccccc2n1C(=O)N(C)C` the Potency was inconclusive: 39.8 µM [inhibitor, partial curve, poor fit]. `Cc1nnc(N/N=C/c2ccccc2O)n1N` was tested, and the Potency was inconclusive: 7.94 µM [inhibitor, partial curve]. In the case of `COc1cc(OC)c(NS(=O)(=O)c2c(C)nc3sc(C)cn3c2=O)cc1Cl`, the Potency was inconclusive: 89.1 µM [inhibitor, partial curve, poor fit]. In the case of `CCOc1cccc(C(=O)Nc2ccc3oc(-c4ccncc4)nc3c2)c1`, the Potency was inconclusive: 5.62 µM [inhibitor, partial curve, poor fit]. `CCCc1nnc(NC(=O)Cn2c(=O)oc3cc(Br)ccc32)s1` was tested, and the Potency was inconclusive: 44.7 µM [inhibitor, partial curve, poor fit]. `Nc1c(C(=O)C2CC2)sc2nc(-c3cccs3)cc(C(F)(F)F)c12` was tested, and the Potency was inconclusive: 7.08 µM [inhibitor, partial curve, poor fit]. For `Cc1cc2c(cc1S(=O)(=O)C(C)CC(=O)NC1CCC(C)CC1)OCC(=O)N2` (stereo not given), the Potency was “inactive”. In the case of `CCOC(=O)CN1C(=O)N[C@@H](CCc2ccccc2)[C@H](C(=O)OC)[C@H]1C`, the Potency was inconclusive: 0.282 µM [inhibitor, full curve, poor fit]. With `O=C(C[C@@H]1C/C=C/CC[C@H](Cc2ccc(F)cc2)C(=O)OC[C@@H](Cc2ccccc2)NC1=O)N[C@H](CO)Cc1ccccc1` the Potency was inconclusive: 0.282 µM [inhibitor, full curve, poor fit]. `O=C1c2cccc3c(O)ccc(c23)C(=O)N1c1ccc(Cl)cc1` was tested, and the Potency was active: 28.2 µM.
